The other results are listed elsewhere or left out.
biological target: OsWRKY34 (Oryza sativa, UniProt Q0JBA9 1-250); assay: protein-binding microarray (RPBM); PBS, 2% BSA, 51.3 ng/ul salmon testes DNA, 50 uM zinc acetate, 200 nM TF, 25 C, 1 h; high values mean tight binding; details: protein: recombinant; tags: N-terminal polyhistidine and DsRed monomer fusion (pET32a); label: CyDye5-dUTP incorporated in the synthesized complementary strand; 3' TTTTT single-stranded linker to array surface; dsDNA, one strand shown
Method in brief: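 The binding signal is fluorescence intensity per feature, in arbitrary units, read on an Axon 4000B scanner. Polyhistidine- and DsRed-tagged transcription factors (N-terminal fusions) from E. coli BL21-CodonPlus were purified on Ni–NTA and applied at 200 nM for 1 h at 25 °C to a double-stranded, BSA-blocked custom Agilent array in buffer with 50 µM zinc acetate.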

Sequences of proteins named here, by UniProt entry; tags and fusion partners are left off.
UniProt Q0JBA9, entry or part of it: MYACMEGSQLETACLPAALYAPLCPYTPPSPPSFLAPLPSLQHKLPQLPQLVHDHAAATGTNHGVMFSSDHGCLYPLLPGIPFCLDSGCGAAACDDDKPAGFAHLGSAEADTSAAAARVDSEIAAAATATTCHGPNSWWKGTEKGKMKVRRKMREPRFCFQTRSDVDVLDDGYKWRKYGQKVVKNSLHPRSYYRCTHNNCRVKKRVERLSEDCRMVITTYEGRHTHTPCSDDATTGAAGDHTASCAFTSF

Sequence	binding signal
GATCAAACGTTGGTTAAAAAGTCAACGGCGTCATACATTACGGAGTCACCTAGTGCAG	10700 fluorescence intensity (a.u.)
TCTCCGCTCCCGACACACACTCCACTCCACTCCAGTCCACCGGAGTCACCTAGTGCAG	9240 fluorescence intensity (a.u.)
TGCTTTAGTAGTTCTGTTACGTGGAAGGTTTGTTTTTTTTCGGAGTCACCTAGTGCAG	10100 fluorescence intensity (a.u.)
CATAGTGCCCGGTATTTATTTTCTATTTTTTTTCCAAACTCGGAGTCACCTAGTGCAG	11600 fluorescence intensity (a.u.)
CACTTCTCTAATACTATCGGCCCTTATCAGAACTGCTTTACGGAGTCACCTAGTGCAG	8480 fluorescence intensity (a.u.)
TTGCCTGGTCGATATGTCCTGCCCGGGCACTGTTGATATACGGAGTCACCTAGTGCAG	10500 fluorescence intensity (a.u.)
CTTTCCCACTCTCTCTCACACACCACGTCCCATCCCGTCGCGGAGTCACCTAGTGCAG	8290 fluorescence intensity (a.u.)
CCTCTCCTAGGTTAAGTTTTTTTGGGGCGAAGGGAGTATTCGGAGTCACCTAGTGCAG	8120 fluorescence intensity (a.u.)
TCCCCGACGAGGTCGGCCAGCGAGCTCTCACCCGAGCGCTCGGAGTCACCTAGTGCAG	8250 fluorescence intensity (a.u.)
CTTTCTCTGTTGATCTTCTCGTGGTGGGTGACTGTGTCAACGGAGTCACCTAGTGCAG	10300 fluorescence intensity (a.u.)
ATTTACACCCAGCAACGGTCTCTGCCTCGTCGATCGCCTACGGAGTCACCTAGTGCAG	11000 fluorescence intensity (a.u.)
TGTCAGTCACTGTCCCCTTCGTGGTCGTCTTCGCCACTTCCGGAGTCACCTAGTGCAG	9210 fluorescence intensity (a.u.)
GCTTCAAGCTCAACCGGTCAGTCAATTCCCGCATAAGTTTCGGAGTCACCTAGTGCAG	9850 fluorescence intensity (a.u.)
CCCCAGCATCTCACATTTCACATGTCTGAATCAGAGCACCCGGAGTCACCTAGTGCAG	8140 fluorescence intensity (a.u.)
GTCTGTTGCTGTGTTGGACAAGTTTTGTCTGAAAATCGCCCGGAGTCACCTAGTGCAG	8110 fluorescence intensity (a.u.)
TAGTTTGATTCTCGTGACACATAGGGCGACCTAAGCTTATCGGAGTCACCTAGTGCAG	8300 fluorescence intensity (a.u.)
TGTTGTAACCGTTGTTGTTGAAAATCTTTGTGGTTTTTATCGGAGTCACCTAGTGCAG	10600 fluorescence intensity (a.u.)
TCCTTAAACTTTTACTTCTGAGTCAAATTAGTCCTTGATACGGAGTCACCTAGTGCAG	8470 fluorescence intensity (a.u.)
TATATCATATGCGGGCGTGATCTATTGGGGCGGGGTGTGGCGGAGTCACCTAGTGCAG	20000 fluorescence intensity (a.u.)
ACTCCGCAGCCCAATAACCACCATTGTTTTCTCATCTCGACGGAGTCACCTAGTGCAG	9970 fluorescence intensity (a.u.)
TTTGACACCGTTGACTTTTTTAAACATGTTTAACTGTTCGCGGAGTCACCTAGTGCAG	33900 fluorescence intensity (a.u.)

Sequence	binding signal
TCCGTTTCACAATGTAAGTCATTCTAGCATTTCCCACATTCGGAGTCACCTAGTGCAG	9770 fluorescence intensity (a.u.)
GACCCTGCCCTACGTTTTCTTGGTCGTTTTGGTCATCTAGCGGAGTCACCTAGTGCAG	9570 fluorescence intensity (a.u.)
GTTTTTGTCTAATATATATATATGTGTTATATTTCAATTACGGAGTCACCTAGTGCAG	8120 fluorescence intensity (a.u.)
ATGTTTTTTGCCAATATTTTGGTACATCATCCGTGTTTGACGGAGTCACCTAGTGCAG	11100 fluorescence intensity (a.u.)
GAGAGAGAGAGAGATTGAGCTGGTTTTACCAGGAAGTTTCCGGAGTCACCTAGTGCAG	8100 fluorescence intensity (a.u.)
GGAGGAGGTGGCGGCGGAGGGGTTGGTGGTGGAGGTGGTCCGGAGTCACCTAGTGCAG	20800 fluorescence intensity (a.u.)
CCCCAGCTCACCTCCTCCTCACTACCACCACCACCACCACCGGAGTCACCTAGTGCAG	11300 fluorescence intensity (a.u.)
TCATGGCCTCTTGTGTGGGTTTCTAGATGACAACGTTGAACGGAGTCACCTAGTGCAG	8060 fluorescence intensity (a.u.)
CTGAATATGTAGTTTTATGATACAACACTTTAAATTTATACGGAGTCACCTAGTGCAG	8100 fluorescence intensity (a.u.)
CACACCATGCATCCGTCCGCATATACCCTGTCAACAATGTCGGAGTCACCTAGTGCAG	9320 fluorescence intensity (a.u.)
GCCCCGGTCCTCAAGTACCTTGACAATGTTCCCTTTGCCACGGAGTCACCTAGTGCAG	12500 fluorescence intensity (a.u.)
CCGCGACTTCGCCCGCCGCGCCGCGCCGCGCCGCCCTGCGCGGAGTCACCTAGTGCAG	8390 fluorescence intensity (a.u.)
TGTGCAATACCAAATCCTGACCGTTGATCTAGCATCATTCCGGAGTCACCTAGTGCAG	8192 fluorescence intensity (a.u.)
TGTCTTTTGTAAGAATGAGGTTGTAACTCTTTTTCTTGTTCGGAGTCACCTAGTGCAG	9670 fluorescence intensity (a.u.)
TAATACTCTTCTCGCTAAATATTTAGTTTCTATTGCAACTCGGAGTCACCTAGTGCAG	10600 fluorescence intensity (a.u.)
TCAGGGTGTTGGGCAGATCAGTTCACTTGGTTAGCGAGCGCGGAGTCACCTAGTGCAG	13500 fluorescence intensity (a.u.)
GCCTGATGTCCAGCACGCAGGTCCCATCTCGCCGAGCGCTCGGAGTCACCTAGTGCAG	8160 fluorescence intensity (a.u.)
CTCCTCCCAACTTTCCCCTTTGCTACAGTAGCTCCTTCTTCGGAGTCACCTAGTGCAG	8100 fluorescence intensity (a.u.)
GTCTCCATCAAGTTTATAACCGCTCGCGTCGCGCCCATCTCGGAGTCACCTAGTGCAG	11900 fluorescence intensity (a.u.)
TATACACACAAACCGCTGACCCTTCTACCGTGGAAACAACCGGAGTCACCTAGTGCAG	8600 fluorescence intensity (a.u.)
CACTCCAGTCAGTCCACGCCCACACCGCCGCCGCCCGCATCGGAGTCACCTAGTGCAG	10700 fluorescence intensity (a.u.)

2 records picked at random from those above, as already listed:
Sequence	binding signal
CCGCGACTTCGCCCGCCGCGCCGCGCCGCGCCGCCCTGCGCGGAGTCACCTAGTGCAG	8390 fluorescence intensity (a.u.)
CTCCTCCCAACTTTCCCCTTTGCTACAGTAGCTCCTTCTTCGGAGTCACCTAGTGCAG	8100 fluorescence intensity (a.u.)

Next entries follow.

Sequence	binding signal
CCCAAAGTATTGATCGTTTTTGTTTATCATTTTGCTGGATCGGAGTCACCTAGTGCAG	10300 fluorescence intensity (a.u.)
GAATAGTCAAACATATTTTAAAAAGTCAACGTAGTCACACCGGAGTCACCTAGTGCAG	11900 fluorescence intensity (a.u.)
TTTGTAACACTACTTGCCCTTTTTCACATTGCATCATCGTCGGAGTCACCTAGTGCAG	9080 fluorescence intensity (a.u.)
GTTTCCTAAGGTGTTTAGGACTTCTAGTATGAGTTTGGTTCGGAGTCACCTAGTGCAG	8030 fluorescence intensity (a.u.)
TTGCAACGGATTTTACTGGGCTTATGGGCTTCTTTTATTGCGGAGTCACCTAGTGCAG	9700 fluorescence intensity (a.u.)
ATACTCTCTACTGCTTGTCTCGCTCATTTCAAACATTCTTCGGAGTCACCTAGTGCAG	10000 fluorescence intensity (a.u.)
AGAATGGAGGGTGTACGTCTTTTAATCACATTCTTTCATACGGAGTCACCTAGTGCAG	8500 fluorescence intensity (a.u.)
TGGTCTTGCCTCTCGCTTAGCCTTTTTGTTGCCTTGTGCTCGGAGTCACCTAGTGCAG	12300 fluorescence intensity (a.u.)
TACTTGTGTTTATCTGAATTAGTGTTGTGGGGTTTATTTACGGAGTCACCTAGTGCAG	11700 fluorescence intensity (a.u.)
TAAAGTTGTGCCATTGTTTATTTCTGTTATGGTTAGGTTCCGGAGTCACCTAGTGCAG	9430 fluorescence intensity (a.u.)
CCCATGCATGCCCTCTTGTTCTCTCCACCGCGAAACATGACGGAGTCACCTAGTGCAG	10500 fluorescence intensity (a.u.)
TCAGCAATCTCTCTTTCTACTAGGGTCTCTTCTACCAGCGCGGAGTCACCTAGTGCAG	8070 fluorescence intensity (a.u.)
GAACACGCACCGACTAAATGTTAAATTTTTTTTCTTCACTCGGAGTCACCTAGTGCAG	9280 fluorescence intensity (a.u.)
AGGGAAAGATACTCAGCTGCTTTTGTTCAGTTATTCTTCCCGGAGTCACCTAGTGCAG	11100 fluorescence intensity (a.u.)
GGTTGAGTCAGTGTGTGTGTGTCGTGCTGCTGCATGTGTGCGGAGTCACCTAGTGCAG	10400 fluorescence intensity (a.u.)
TTTTGCGTGCTTCCAGCTTATCATGAACCTCGTCACAACGCGGAGTCACCTAGTGCAG	11300 fluorescence intensity (a.u.)
TGCTGCTCTTGACACCACGTCGTTGCTGCCCTGCTTCCACCGGAGTCACCTAGTGCAG	11200 fluorescence intensity (a.u.)
AGGGGCGGAGGGCAGCGATTTTGGTTGGTAGTAGTACGGGCGGAGTCACCTAGTGCAG	10500 fluorescence intensity (a.u.)
ACTGCCGTGCCAGTTTGTTTCAGCAAAGTATGTTTTTGCTCGGAGTCACCTAGTGCAG	8970 fluorescence intensity (a.u.)
TTATTTTTGTGGTCTATTTACTATTTTACTATTTATTTTTCGGAGTCACCTAGTGCAG	8300 fluorescence intensity (a.u.)
TTGCTTTTTTATGCTCAATGCTGTCTGTTTTATCAGAAACCGGAGTCACCTAGTGCAG	8680 fluorescence intensity (a.u.)

Sequence	binding signal
TAGTTAACTCTTTAATTCGTTTCGCTTTTCTGATTGCGAACGGAGTCACCTAGTGCAG	8620 fluorescence intensity (a.u.)
TCATGCATATCCCTGATTTCTCTTTTCTCGCATTTTTTTCCGGAGTCACCTAGTGCAG	11400 fluorescence intensity (a.u.)
TCCCCAAATTTGTCCGTACCCTAAGGTCACGATACCGTTCCGGAGTCACCTAGTGCAG	8880 fluorescence intensity (a.u.)
TCTGTACCCATCCCATCTGCAAACCGAATTTCCGATCGATCGGAGTCACCTAGTGCAG	10300 fluorescence intensity (a.u.)
TATAGTTCATCCTCACTTAGTTAGTGCTTAAATGATTAATCGGAGTCACCTAGTGCAG	9040 fluorescence intensity (a.u.)
TTCTCTGTTTTTTTTTCCCTGCTAGTTCATCCTGTCGCCACGGAGTCACCTAGTGCAG	12600 fluorescence intensity (a.u.)
ACACCACCCAACACCACCACACCACATTTACATTACATTACGGAGTCACCTAGTGCAG	11800 fluorescence intensity (a.u.)
GCTTTGATGATGCACTCATCACCTTCACACGTCGGATCTACGGAGTCACCTAGTGCAG	10300 fluorescence intensity (a.u.)
TCTACTGTCATGCTTCCTTGTCCCATTACTACATCGTCATCGGAGTCACCTAGTGCAG	10100 fluorescence intensity (a.u.)
TGCCACTTGTAGTTTTTATTGACGGTCGATATGATGGTCTCGGAGTCACCTAGTGCAG	8060 fluorescence intensity (a.u.)
GGGCGTGGTGGTGGTGGTGGTGGTTATACGGTTTTCGGTTCGGAGTCACCTAGTGCAG	25900 fluorescence intensity (a.u.)
TTCTTTCCTTACGATTTTTGCTCCTGCTCTAGTTCTTGTTCGGAGTCACCTAGTGCAG	8140 fluorescence intensity (a.u.)
AGACTCGTCGATGCTGGCGTCACCACCGTCCCCGACTTCTCGGAGTCACCTAGTGCAG	9030 fluorescence intensity (a.u.)
AGGAGCTTTGGTTTGGTTCGGTTTGTTATTAGGAAGGAGACGGAGTCACCTAGTGCAG	8550 fluorescence intensity (a.u.)
ATAGTTTTCATGTTTTTCACGCGCCAAATCGCCCCAACTACGGAGTCACCTAGTGCAG	8260 fluorescence intensity (a.u.)
TATATGTTGGGATGGAGGGAATAGCTATTTACTTTTTTTTCGGAGTCACCTAGTGCAG	9640 fluorescence intensity (a.u.)
TCCCGCCGCCGCCGCCTCGCGCCGCCACCTCCGCCTCGCGCGGAGTCACCTAGTGCAG	8270 fluorescence intensity (a.u.)
CTCGCCGAGCTCGAGCTCGATCCATCGCCCGCCAGCCATGCGGAGTCACCTAGTGCAG	8810 fluorescence intensity (a.u.)
AGCCTCATGTTGACTACGAGTCTCAGCACGGACCCTAAAGCGGAGTCACCTAGTGCAG	9510 fluorescence intensity (a.u.)
GTGGTGAATAGATAGATAGTGCGCGCTTCGGCCGGTCCCCCGGAGTCACCTAGTGCAG	9040 fluorescence intensity (a.u.)
AAACTTTCCTACACACATAAACTTCCAACTTTTTTATCACCGGAGTCACCTAGTGCAG	8030 fluorescence intensity (a.u.)

Some of the entries above in another layout:
TATAGTTCATCCTCACTTAGTTAGTGCTTAAATGATTAATCGGAGTCACCTAGTGCAG
  binding signal = 9040 fluorescence intensity (a.u.)
ACACCACCCAACACCACCACACCACATTTACATTACATTACGGAGTCACCTAGTGCAG
  binding signal = 11800 fluorescence intensity (a.u.)
AGACTCGTCGATGCTGGCGTCACCACCGTCCCCGACTTCTCGGAGTCACCTAGTGCAG
  binding signal = 9030 fluorescence intensity (a.u.)
TATATGTTGGGATGGAGGGAATAGCTATTTACTTTTTTTTCGGAGTCACCTAGTGCAG
  binding signal = 9640 fluorescence intensity (a.u.)

Reference: PMC7819943, “Rice protein-binding microarrays: a tool to detect cis-acting elements near promoter regions in rice”
